Data published in publication PMC4373692.
Substitutions are numbered along the chain they refer to. No constants are given. Whether binding was seen depends on the method and setting. In cells and extracts the contact can be indirect. Some binding calls cover weakened binding; strength is not graded here. Blank lines part the entries; values can stand above or below the binder they belong to.

Molecular target: T1, mitochondrial asparaginyl-tRNA synthetase NARS2, wild type (human) (UniProt Q96I59)
T1 sequence: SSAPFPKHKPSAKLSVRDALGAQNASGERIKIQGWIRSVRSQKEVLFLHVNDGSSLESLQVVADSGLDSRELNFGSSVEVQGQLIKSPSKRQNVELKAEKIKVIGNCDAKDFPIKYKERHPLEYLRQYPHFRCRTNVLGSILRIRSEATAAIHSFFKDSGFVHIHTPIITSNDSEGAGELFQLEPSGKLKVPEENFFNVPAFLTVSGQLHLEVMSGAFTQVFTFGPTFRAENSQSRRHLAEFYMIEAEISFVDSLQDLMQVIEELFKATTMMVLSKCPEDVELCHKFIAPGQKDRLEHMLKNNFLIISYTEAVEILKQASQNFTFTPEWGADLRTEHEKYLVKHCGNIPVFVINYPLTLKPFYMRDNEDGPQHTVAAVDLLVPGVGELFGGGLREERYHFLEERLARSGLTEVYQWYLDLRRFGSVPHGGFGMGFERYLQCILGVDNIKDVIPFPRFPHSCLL
Experiment: co-IP; GFP- and HA-tagged NARS2 constructs co-expressed in HEK293T cells; lysis buffer 50mM Tris HCl pH7.4, 100mM NaCl, 1% NP-40, 2mM Na3VO4; immunoprecipitation with anti-GFP antibody, blots for GFP and HA

binding: binds
B1: mitochondrial asparaginyl-tRNA synthetase NARS2, wild type (enzyme, UniProt Q96I59-1 15-477)
chain: T1 sequence

binding: binds
B2: p.Val213Phe NARS2 (enzyme, UniProt Q96I59-1 15-477)
chain: T1 sequence with V199F
